Laboratory results from patent US10202579B2, “Methods for producing mammalian pluripotent stem cell-derived endodermal cells” (Takara Bio Europe AB, priority 2012, dated 2019).
For at least one compound, name, drawing or mass did not settle the structure.

Columns and labels:
Format in all cases: cell-based, human
[1] = system: hESC-derived definitive endoderm; assay: Morphology of hESC-derived definitive endoderm with 5-aza-2-deoxycytidine treatment (Example 3, protocol A)
[2] = system: hiPSC-derived definitive endoderm; assay: Morphology of hiPSC-derived definitive endoderm with 5-aza-2-deoxycytidine treatment (Example 3, protocol A)
[3] = system: hiPSC-derived definitive endoderm; assay: Oct4 immunostaining of hiPSC-derived definitive endoderm (Example 3); details: 10 nM on day 2-3; at day 7; compared to untreated controls
hESC-derived DE = assay: qRT-PCR mRNA expression of stem cell, DE and extraembryonic markers in hESC-derived DE (Example 3); details: harvested day 7
hiPSC-derived DE = assay: qRT-PCR mRNA expression of stem cell, DE and extraembryonic markers in hiPSC-derived DE (Example 3); details: harvested day 7
[4] = system: hPSC lines P11032, SA181 and P11012; assay: DE differentiation of 3 hPSC lines with 5-aza-2-deoxycytidine or 5-azacytidine, qRT-PCR marker expression (Example 5); details: 10 nM on day 2-3
Description: Following the basic protocols A (hPSC lines P11032, and SA181) or B (hPSC line P11012), cells derived from 3 different hPSC lines were treated with either 10 nM 5-aza-2-deoxycytidine or 1 μM 5-azacytidine on day 2-3 during the hPS differentiation into definitive endodem.
For analysis of mRNA expression, hESC- and hiPSC-derived DE-cells were harvested on day 7 of the protocol and gene expression was analysed using qRT-PCR, normalised to the house-keeping gene CREBBP, and the results presented as relative quantification normalised to a calibrator.

[5] = 10 nM on day 2-3, 3-4, 2-4, and 4-6, vs untreated controls
[6] = 10 nM, compared to untreated controls
[7] = 10 nM, treatment on days 2-4 and 4-6
[8] = 10 nM, treatments other than days 2-4 and 4-6

Nc1ncn([C@H]2C[C@H](O)[C@@H](CO)O2)c(=O)n1 [5-aza-2-deoxycytidine]
Morphology of DE ([1]; 1 nM, data not shown): less effect | Morphology of DE ([1]; 10 nM on day 2-3, compared to untreated control DE): more homogeneous and has more pronounced cell-cell contacts | Morphology of DE ([2]; 1 nM, data not shown): less effect | Morphology of DE ([2]; 10 nM on day 2-3, compared to control DE): more confluent and has more pronounced cell-cell contacts | Oct4-immunopositive cells [3]: much less | Expression of the stem cell marker Oct4 (mRNA) (hESC-derived DE; [5]): much lower | Expression of the DE marker Cxcr4 (mRNA) (hESC-derived DE; [6]): up-regulated | Expression of the DE marker FoxA2 (mRNA) (hESC-derived DE; [6]): up-regulated | Expression of the DE marker Sox17 (mRNA) (hESC-derived DE; [6]): up-regulated | Expression of the DE marker hHex (mRNA) (hESC-derived DE; [6]): up-regulated | mRNA expression of the stem cell marker Nanog (hESC-derived DE; 10 nM, vs untreated controls): strongly decreased | Sox7 mRNA levels (hESC-derived DE; [7]): increases | Expression of the extraembryonic marker Sox7 (mRNA) (hESC-derived DE; [8]): very low | Expression of the stem cell marker Oct4 (mRNA) (hiPSC-derived DE; [5]): much lower | Expression of the DE marker Cxcr4 (mRNA) (hiPSC-derived DE; [6]): up-regulated | Expression of the DE marker FoxA2 (mRNA) (hiPSC-derived DE; [6]): up-regulated | Expression of the DE marker Sox17 (mRNA) (hiPSC-derived DE; [6]): up-regulated | Expression of the DE marker hHex (mRNA) (hiPSC-derived DE; [6]): up-regulated | mRNA expression of the stem cell marker Nanog (hiPSC-derived DE; 10 nM, vs untreated controls): mainly unaffected | Sox7 mRNA levels (hiPSC-derived DE; [7]): increases | Expression of the extraembryonic marker Sox7 (mRNA) (hiPSC-derived DE; [8]): very low | mRNA expression of the DE marker Cxcr4 ([4]; day 7): No significant changes | mRNA expression of the DE marker Sox17 ([4]; day 7): No significant changes | Nanog mRNA ([4]; day 7, vs without treatment): significantly decreased | Oct4 mRNA ([4]; day 7, vs without treatment): significantly decreased | Homogeneity of derived DE population ([4]; lines give heterogeneous DE if untreated): allowed derivation of a homogeneous DE population
